# From patent US20240366728A1, “Treatment of Diabetes Mellitus” (Carmot Therapeutics Inc., priority 2023, published 2024)
# Chains of the proteins cited; added tags and fusions are not shown. Residues count along the entry.
# UniProt P43220, 24-463: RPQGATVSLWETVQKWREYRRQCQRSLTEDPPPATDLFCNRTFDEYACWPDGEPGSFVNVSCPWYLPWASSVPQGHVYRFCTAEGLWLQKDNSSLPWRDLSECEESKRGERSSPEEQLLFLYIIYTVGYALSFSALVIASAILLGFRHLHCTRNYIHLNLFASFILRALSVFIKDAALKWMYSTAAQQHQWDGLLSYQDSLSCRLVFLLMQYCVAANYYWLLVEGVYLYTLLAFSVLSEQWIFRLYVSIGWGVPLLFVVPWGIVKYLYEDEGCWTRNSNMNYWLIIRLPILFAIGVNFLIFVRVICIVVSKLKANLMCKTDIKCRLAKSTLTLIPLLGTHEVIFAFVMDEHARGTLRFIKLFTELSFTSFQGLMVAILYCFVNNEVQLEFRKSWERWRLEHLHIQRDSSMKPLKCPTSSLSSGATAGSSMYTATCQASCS
# Values joined by “and” are separate entries in the source; they are usually repeats but may differ in a detail not shown here. Identical values can stand only once. For at least one compound, name, drawing or mass did not settle the structure. Marks after values point to notes of the source that are not given here.
# What was measured:
# [1] = target: human GLP-1R (Homo sapiens, UniProt P43220); experiment: cAMP accumulation, SNAP-human GLP-1R CHO-K1 cells
# [2] = tested on: ob/ob mice; experiment: chronic daily SC dosing in ob/ob mice (body weight, food intake); type: in vivo, mouse; details: for weight loss from baseline: 24 days, ±SD
# [3] = tested on: GLP-1R+/+ and GLP-1R-/- mice; experiment: intraperitoneal glucose tolerance test in GLP-1R+/+ and GLP-1R-/- mice
# [4] = tested on: DIO mice; experiment: respiratory exchange ratio / indirect calorimetry in DIO mice; type: in vivo, mouse; details: 20 nmol/kg/day SC
# [5] = target: T1, human GIPR (Homo sapiens, UniProt P48546); experiment: receptor internalization (Nano-Glo HiBiT), human GIPR; type: cell-based; details: 60 to 120 minutes
# T1 sequence (P48546 22-466): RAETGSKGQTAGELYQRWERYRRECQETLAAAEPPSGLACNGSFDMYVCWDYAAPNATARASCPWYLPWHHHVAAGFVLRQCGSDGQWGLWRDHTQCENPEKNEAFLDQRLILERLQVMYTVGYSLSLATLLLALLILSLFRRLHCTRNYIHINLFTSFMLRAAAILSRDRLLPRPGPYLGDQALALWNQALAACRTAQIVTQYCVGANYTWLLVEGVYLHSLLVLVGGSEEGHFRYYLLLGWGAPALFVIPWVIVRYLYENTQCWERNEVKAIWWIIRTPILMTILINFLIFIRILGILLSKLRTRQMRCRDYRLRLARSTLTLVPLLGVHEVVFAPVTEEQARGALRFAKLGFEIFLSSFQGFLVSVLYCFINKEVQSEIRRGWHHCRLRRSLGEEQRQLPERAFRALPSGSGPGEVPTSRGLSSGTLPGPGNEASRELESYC
# [6] = tested on: participants with T2DM; experiment: CT-868-003 crossover study: appetite/hunger VAS, ad libitum food intake, body weight; type: in vivo, human
# [7] = T2DM, Day 4, printed in Liraglutide column
# [8] = T2DM, Day 4, printed in Placebo column
smiles,measurement,setting,value
CCCCCCCCCCCCCCCC(=O)N[C@@H](CCC(=O)NCCCC[C@H](NC(=O)[C@H](CO)NC(=O)[C@@H]1CCCN1C(=O)[C@@H]1CCCN1C(=O)[C@@H]1CCCN1C(=O)[C@H](C)NC(=O)CNC(=O)[C@H](CO)NC(=O)[C@H](CO)NC(=O)[C@@H]1CCCN1C(=O)CNC(=O)CNC(=O)[C@H](C)NC(=O)[C@H](CC(C)C)NC(=O)[C@H](CC(C)C)NC(=O)[C@H](Cc1c[nH]c2ccccc12)NC(=O)[C@H](CC(N)=O)NC(=O)[C@@H](NC(=O)[C@H](Cc1ccccc1)NC(=O)[C@H](CCC(=O)O)NC(=O)C(C)(C)NC(=O)[C@H](C)NC(=O)[C@H](C)NC(=O)[C@H](CCC(N)=O)NC(=O)[C@H](CCCCN)NC(=O)[C@H](CC(=O)O)NC(=O)[C@H](CC(C)C)NC(=O)[C@H](Cc1ccc(O)cc1)NC(=O)[C@@H](NC(=O)[C@H](CO)NC(=O)[C@H](Cc1ccc(O)cc1)NC(=O)[C@H](CC(=O)O)NC(=O)[C@H](CO)NC(=O)[C@@H](NC(=O)[C@H](Cc1ccccc1)NC(=O)[C@@H](NC(=O)CNC(=O)[C@H](CCC(=O)O)NC(=O)CSCC(=O)NCCN1CCCCC1=O)[C@@H](C)O)[C@@H](C)O)[C@@H](C)CC)C(C)C)C(N)=O)C(=O)O [CT-868],agonist type for cAMP accumulation at human GLP-1R (in words),[1],"potent, full agonist of cAMP accumulation"
same,hGIPR/hGLP-1R cAMP ratio,[1]; Table 17,12
same,potency relative to native ligand GLP-1 (in words),[1]; cAMP,six-fold less potent than the native ligand GLP-1
same,ratio favoring GLP-1R over GIPR,[1]; cAMP potencies at human receptors,about 19.4
same,weight loss from baseline,[2]; 10 nmol/kg,3.1±2.8%
same,weight loss from baseline,[2]; 30 nmol/kg,8.4±1.6%
same,weight loss,"[2]; CT-868 30 nmol/kg, liraglutide 200 nmol/kg daily SC",19.8%
same,24 h food intake (in words),"[2]; Day 1, Day 8, Day 15",continued to show lower food intake at Day 15
same,glucose in IPGTT (in words),"[3]; GLP-1R KO mice, 30 nmol/kg",limited suppression of glucose through GIPR
same,glucose in IPGTT (in words),"[3]; GLP-1R KO mice, 300 nmol/kg",significantly greater glucose-lowering effects
same,insulin secretion in IPGTT (in words),"[3]; GLP-1R KO mice, 300 nmol/kg",achieved without increased insulin secretion
same,GLUC AUC lowered vs vehicle,"[3]; GLP-1R-/- mice, 300 nmol/kg",38%
same,insulin during ipGTT (in words),"[3]; GLP-1R-/- mice, 300 nmol/kg",without concomitant INS excursion or hyperinsulinemia
same,RER vs vehicle (in words),[4],significantly lower than that of the vehicle-treated group in the first nine days
same,ambulatory activity vs vehicle (in words),[4],no differences between the two groups in ambulatory activity
same,GIPR internalization (in words),[5],effectively suppresses GLP-1R and GIPR internalization
same,food intake vs placebo (in words),[6]; T2DM,lower for CT-868 as compared to placebo
same,"Caloric intake, LS mean difference CT-868 vs liraglutide",[6]; [7],"−202.3 kcal and −202.3 [−478.1, kcal"
same,"Food intake, LS mean difference CT-868 vs liraglutide",[6]; [7],"−48.7 g and −48.7 [−142.6, g"
same,"Caloric intake, LS mean difference CT-868 vs placebo",[6]; [8],"−328.6 [−536.1, kcal"
same,"Food intake, LS mean difference CT-868 vs placebo",[6]; [8],"−147.9 [−222.1, g"
same,Appetite (0-100),"[6]; Table 12, Day 4",51.5
same,Body weight,"[6]; Table 12, Day 4",93.4 kg
same,Hunger (0-100),"[6]; Table 12, Day 4",53.0
same,Appetite (0-100),"[6]; Table 12, Pre-dose",70.8
same,Body weight,"[6]; Table 12, Pre-dose",93.3 kg
same,Hunger (0-100),"[6]; Table 12, Pre-dose",61.5
same,Food Intake vs. Pbo,"[6]; Table 12, ad libitum meal",↓ 21% vs. Pbo
same,Total Calories consumed,"[6]; Table 12, ad libitum meal",733.7* kcal
same,Total Calories consumed vs. Pbo,"[6]; Table 12, ad libitum meal",↓32% vs. Pbo
same,food intake,"[6]; Table 12, ad libitum meal",591.4* g
same,Appetite (0-100) Change,"[6]; Table 12, pre-dose to Day 4",↓19 points
same,Body weight Change,"[6]; Table 12, pre-dose to Day 4",0.09 kg
same,Hunger (0-100) Change,"[6]; Table 12, pre-dose to Day 4",↓9 points
same,"Appetite score, LS mean change from Day 1 to Day 4","[6]; Table 22, T2DM","−24.1 [−33.6,− points"
same,"Body weight, LS mean change from Day 1 to Day 4","[6]; Table 22, T2DM","0.09 [−0.47, kg"
same,"Caloric intake during ad libitum meal on Day 4, Mean (SD)","[6]; Table 22, T2DM",733.7 (410.8) kcal
same,"Food intake during ad libitum meal on Day 4, Mean (SD)","[6]; Table 22, T2DM",591.4 (170.1) g
same,"Hunger score, LS mean change from Day 1 to Day 4","[6]; Table 22, T2DM","−13.5 [−24.6,− points"
same,"Appetite score (VAS: 0-100 points), LS mean","[6]; Table 22, T2DM, Day 1","69.2 [59.5, points"
